# Some of the results follow.
# B1: Protein L(A-C2) (Finegoldia magna), Q51912 (protein)
# chain: ADEPIDLEKLEEKRDKENVGNLPKFDNEVKDGSENPMAKYPDFDDEASTRFETENNEFEEKKVVSDNFFDQSEHPFVENKEETPETPETDSEEEVTIKANLIFANGSTQTAEFKGTFEKATSEAYAYADTLKKDNGEYTVDVADKGYTLNIKFAGKEKTPEEPKEEVTIKANLIYADGKTQTAEFKGTFEEATAEAYRYADALKKDNGEYTVDVADKGYTLNIKFAGKEKTPEEPKEEVTIKANLIYADGKTQTAEFKGTFEEATAEAYRYADLLAKENGKYTVDVADKGYTLNIKFAGKEKTPEEPKEEVTIKANLIYADGKTQTAEFKGTFAEATAEAYRYADLLAKENGKYTADLEDGGYTINIRFAGKKVDEKPEEKEQVTIKENIYFEDGTVQTATFKGTFAEATAEAYRYADLLSKEHGKYTADLEDGGYTINIRFAGKEEPEETPEKPEVQDGYASYEEAEAAAKEALKNDDVNKSYTIRQGADGRYYYVLSPVEAEEEKPEAQNGYATYEEAEAAAKKALENDPINKSYSIRQGADGRYYYVLSPVEAE
# Tests used:
# Test in all cases: glycan array binding signal (z-score within array); higher = stronger binding
# Conditions in all cases: glycan notation: IUPAC condensed, linker removed
# [1] = molecular target: Gal(b1-4)GlcNAc(b1-3)Gal(b1-4)GlcNAc(b1-2)[Gal(b1-4)GlcNAc(b1-3)Gal(b1-4)GlcNAc(b1-6)]Man(a1-6)[Gal(b1-4)GlcNAc(b1-3)Gal(b1-4)GlcNAc(b1-2)Man(a1-3)]Man(b1-4)GlcNAc(b1-4)GlcNAc
# Procedure, shortened: (§1)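 Glycan array data came from 3228 arrays in the Consortium for Functional Glycomics database, and only arrays with an available protein sequence were kept. Glycan names were put into IUPAC-condensed notation, and columns mapping to the same glycan were averaged. The binding signal is a within-array Z-score, averaged across arrays of one protein sequence run at different concentrations or buffers and across linkers. A negative Z-score can be read as non-binding.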
# [2] = molecular target: Gal(b1-4)GlcNAc(b1-3)Gal(b1-4)GlcNAc(b1-2)[Gal(b1-4)GlcNAc(b1-3)Gal(b1-4)GlcNAc(b1-6)]Man(a1-6)[Gal(b1-4)GlcNAc(b1-3)Gal(b1-4)GlcNAc(b1-2)Man(a1-3)]Man(b1-4)GlcNAc(b1-4)[Fuc(a1-6)]GlcNAc
# Procedure, shortened: as §1
# [3] = molecular target: Gal(b1-4)GlcNAc(b1-3)Gal(b1-4)GlcNAc(b1-3)Gal(b1-4)GlcNAc
# Procedure, shortened: as §1
# [4] = molecular target: Gal(b1-4)GlcNAc(b1-3)Gal(b1-4)GlcNAc(b1-3)Gal(b1-4)GlcNAc(b1-2)Man(a1-3)[Gal(b1-4)GlcNAc(b1-3)Gal(b1-4)GlcNAc(b1-3)Gal(b1-4)GlcNAc(b1-2)Man(a1-6)]Man(b1-4)GlcNAc(b1-4)GlcNAc
# Procedure, shortened: as §1
# [5] = molecular target: Gal(b1-4)GlcNAc(b1-3)Gal(b1-4)GlcNAc(b1-3)Gal(b1-4)GlcNAc(b1-2)Man(a1-3)[Gal(b1-4)GlcNAc(b1-3)Gal(b1-4)GlcNAc(b1-3)Gal(b1-4)GlcNAc(b1-2)Man(a1-6)]Man(b1-4)GlcNAc(b1-4)[Fuc(a1-6)]GlcNAc
# Procedure, shortened: as §1
# [6] = molecular target: Gal(b1-4)GlcNAc(b1-3)Gal(b1-4)GlcNAc(b1-3)Gal(b1-4)GlcNAc(b1-2)[Gal(b1-4)GlcNAc(b1-3)Gal(b1-4)GlcNAc(b1-3)Gal(b1-4)GlcNAc(b1-6)]Man(a1-6)[Gal(b1-4)GlcNAc(b1-3)Gal(b1-4)GlcNAc(b1-3)Gal(b1-4)GlcNAc(b1-2)Man(a1-3)]Man(b1-4)GlcNAc(b1-4)[Fuc(a1-6)]GlcNAc
# Procedure, shortened: as §1
# [7] = molecular target: Gal(b1-4)GlcNAc(b1-3)Gal(b1-4)GlcNAc(b1-3)Gal(b1-4)GlcNAc(b1-3)Gal(b1-4)GlcNAc(b1-2)Man(a1-3)[Gal(b1-4)GlcNAc(b1-3)Gal(b1-4)GlcNAc(b1-3)Gal(b1-4)GlcNAc(b1-3)Gal(b1-4)GlcNAc(b1-2)Man(a1-6)]Man(b1-4)GlcNAc(b1-4)GlcNAc
# Procedure, shortened: as §1
# [8] = molecular target: Gal(b1-4)GlcNAc(b1-3)Gal(b1-4)GlcNAc(b1-3)Gal(b1-4)GlcNAc(b1-3)Gal(b1-4)GlcNAc(b1-2)Man(a1-3)[Gal(b1-4)GlcNAc(b1-3)Gal(b1-4)GlcNAc(b1-3)Gal(b1-4)GlcNAc(b1-3)Gal(b1-4)GlcNAc(b1-2)Man(a1-6)]Man(b1-4)GlcNAc(b1-4)[Fuc(a1-6)]GlcNAc
# Procedure, shortened: as §1
# [9] = molecular target: Gal(b1-4)GlcNAc(b1-3)Gal(b1-4)GlcNAc(b1-3)Gal(b1-4)GlcNAc(b1-3)Gal(b1-4)GlcNAc(b1-2)[Gal(b1-4)GlcNAc(b1-3)Gal(b1-4)GlcNAc(b1-3)Gal(b1-4)GlcNAc(b1-3)Gal(b1-4)GlcNAc(b1-6)]Man(a1-6)[Gal(b1-4)GlcNAc(b1-3)Gal(b1-4)GlcNAc(b1-3)Gal(b1-4)GlcNAc(b1-3)Gal(b1-4)GlcNAc(b1-2)Man(a1-3)]Man(b1-4)GlcNAc(b1-4)[Fuc(a1-6)]GlcNAc
# Procedure, shortened: as §1
# [10] = molecular target: Gal(b1-4)GlcNAc(b1-3)Gal(b1-4)GlcNAc(b1-3)Gal(b1-4)GlcNAc(b1-3)Gal(b1-4)GlcNAc(b1-3)Gal(b1-4)GlcNAc(b1-2)Man(a1-3)[Gal(b1-4)GlcNAc(b1-3)Gal(b1-4)GlcNAc(b1-3)Gal(b1-4)GlcNAc(b1-3)Gal(b1-4)GlcNAc(b1-3)Gal(b1-4)GlcNAc(b1-2)Man(a1-6)]Man(b1-4)GlcNAc(b1-4)GlcNAc
# Procedure, shortened: as §1
# [11] = molecular target: Gal(b1-4)GlcNAc(b1-3)Gal(b1-4)GlcNAc(b1-3)Gal(b1-4)GlcNAc(b1-3)Gal(b1-4)GlcNAc(b1-3)Gal(b1-4)GlcNAc(b1-2)Man(a1-3)[Gal(b1-4)GlcNAc(b1-3)Gal(b1-4)GlcNAc(b1-3)Gal(b1-4)GlcNAc(b1-3)Gal(b1-4)GlcNAc(b1-3)Gal(b1-4)GlcNAc(b1-2)Man(a1-6)]Man(b1-4)GlcNAc(b1-4)[Fuc(a1-6)]GlcNAc
# Procedure, shortened: as §1
# [12] = molecular target: Gal(b1-4)GlcNAc(b1-3)Gal(b1-4)GlcNAc(b1-3)Gal(b1-4)GlcNAc(b1-3)Gal(b1-4)GlcNAc(b1-3)Gal(b1-4)GlcNAc(b1-2)[Gal(b1-4)GlcNAc(b1-3)Gal(b1-4)GlcNAc(b1-3)Gal(b1-4)GlcNAc(b1-3)Gal(b1-4)GlcNAc(b1-3)Gal(b1-4)GlcNAc(b1-6)]Man(a1-6)[Gal(b1-4)GlcNAc(b1-3)Gal(b1-4)GlcNAc(b1-3)Gal(b1-4)GlcNAc(b1-3)Gal(b1-4)GlcNAc(b1-3)Gal(b1-4)GlcNAc(b1-2)Man(a1-3)]Man(b1-4)GlcNAc(b1-4)[Fuc(a1-6)]GlcNAc
# Procedure, shortened: as §1
# [13] = molecular target: Gal(b1-4)GlcNAc(b1-3)Gal(b1-4)GlcNAc(b1-3)Gal(b1-4)GlcNAc(b1-3)Gal(b1-4)GlcNAc(b1-3)Gal(b1-4)GlcNAc(b1-3)Gal(b1-4)GlcNAc(b1-2)Man(a1-3)[Gal(b1-4)GlcNAc(b1-3)Gal(b1-4)GlcNAc(b1-3)Gal(b1-4)GlcNAc(b1-3)Gal(b1-4)GlcNAc(b1-3)Gal(b1-4)GlcNAc(b1-3)Gal(b1-4)GlcNAc(b1-2)Man(a1-6)]Man(b1-4)GlcNAc(b1-4)GlcNAc
# Procedure, shortened: as §1
# [14] = molecular target: Gal(b1-4)GlcNAc(b1-3)Gal(b1-4)GlcNAc(b1-3)GalNAc
# Procedure, shortened: as §1
# [15] = molecular target: Gal(b1-4)GlcNAc(b1-3)Gal(b1-4)GlcNAc(b1-3)[Gal(b1-4)GlcNAc(b1-3)Gal(b1-4)GlcNAc(b1-6)]GalNAc
# Procedure, shortened: as §1
# [16] = molecular target: Gal(b1-4)GlcNAc(b1-3)Gal(b1-4)GlcNAc(b1-6)[Gal(b1-3)]GalNAc
# Procedure, shortened: as §1
# [17] = molecular target: Gal(b1-4)GlcNAc(b1-3)Gal(b1-4)[Fuc(a1-3)]GlcNAc(b1-3)Gal(b1-4)[Fuc(a1-3)]GlcNAc
# Procedure, shortened: as §1
# [18] = molecular target: Gal(b1-4)GlcNAc(b1-3)GalNAc
# Procedure, shortened: as §1
# [19] = molecular target: Gal(b1-4)GlcNAc(b1-3)[Fuc(a1-3)GlcNAc(b1-6)]Gal(b1-4)Glc
# Procedure, shortened: as §1
# [20] = molecular target: Gal(b1-4)GlcNAc(b1-3)[Gal(b1-4)GlcNAc(b1-6)]Gal(b1-4)GlcNAc
# Procedure, shortened: as §1
# [21] = molecular target: Gal(b1-4)GlcNAc(b1-3)[GlcNAc(b1-6)]Gal(b1-4)GlcNAc
# Procedure, shortened: as §1
# [22] = molecular target: Gal(b1-4)GlcNAc(b1-6)Gal(b1-4)GlcNAc
# Procedure, shortened: as §1
# [23] = molecular target: Gal(b1-4)GlcNAc(b1-6)GalNAc
# Procedure, shortened: as §1
# [24] = molecular target: Gal(b1-4)GlcNAc(b1-6)[Gal(b1-3)]GalNAc
# Procedure, shortened: as §1
# [25] = molecular target: Gal(b1-4)GlcNAc(b1-6)[Gal(b1-4)GlcNAc(b1-3)]GalNAc
# Procedure, shortened: as §1
# Gal(b1-4)GlcNAc6P = molecular target: Gal(b1-4)GlcNAc6P
# Procedure, shortened: as §1
# Gal(b1-6)Gal = molecular target: Gal(b1-6)Gal
# Procedure, shortened: as §1
# Gal3S(b1-3)GalNAc = molecular target: Gal3S(b1-3)GalNAc
# Procedure, shortened: as §1
# Gal3S(b1-3)GlcNAc = molecular target: Gal3S(b1-3)GlcNAc
# Procedure, shortened: as §1
# [26] = molecular target: Gal3S(b1-3)[Fuc(a1-4)]GlcNAc
# Procedure, shortened: as §1
binder,measurement,setting,value
B1,glycan array binding signal (z-score),[1],1.35
same,glycan array binding signal (z-score),[2],1.42
same,glycan array binding signal (z-score),[3],-0.614
same,glycan array binding signal (z-score),[4],3.21
same,glycan array binding signal (z-score),[5],1.11
same,glycan array binding signal (z-score),[6],0.368
same,glycan array binding signal (z-score),[7],0.959
same,glycan array binding signal (z-score),[8],0.473
same,glycan array binding signal (z-score),[9],2.27
same,glycan array binding signal (z-score),[10],0.151
same,glycan array binding signal (z-score),[11],0.748
same,glycan array binding signal (z-score),[12],1.8
same,glycan array binding signal (z-score),[13],0.653
same,glycan array binding signal (z-score),[14],0.97
same,glycan array binding signal (z-score),[15],1.95
same,glycan array binding signal (z-score),[16],3.67
same,glycan array binding signal (z-score),[17],0.086
same,glycan array binding signal (z-score),[18],-0.961
same,glycan array binding signal (z-score),[19],0.308
same,glycan array binding signal (z-score),[20],-1.01
same,glycan array binding signal (z-score),[21],-0.783
same,glycan array binding signal (z-score),[22],-1.04
same,glycan array binding signal (z-score),[23],-0.23
same,glycan array binding signal (z-score),[24],-0.544
same,glycan array binding signal (z-score),[25],0.282
same,glycan array binding signal (z-score),Gal(b1-4)GlcNAc6P,-0.881
same,glycan array binding signal (z-score),Gal(b1-6)Gal,0.608
same,glycan array binding signal (z-score),Gal3S(b1-3)GalNAc,-0.97
same,glycan array binding signal (z-score),Gal3S(b1-3)GlcNAc,-0.286
same,glycan array binding signal (z-score),[26],1.09

# Two entries from above, bar-delimited:
binder | measurement | setting | value
B1 | glycan array binding signal (z-score) | [3] | -0.614
same | glycan array binding signal (z-score) | [18] | -0.961

# Source: the supplement of paper PMC8728848
